# Laboratory results published in PubChem BioAssay AID504467 (National Center for Advancing Translational Sciences (NCATS), 2011).
# Out of some 330,000 compounds screened, about 7,700 (2.3%) were called active. This list was built around the results that the source calls inconclusive (neither active nor inactive); the mix of calls is not that of the screen. The call rests on the fitted dose curve; in most records, active means well fitted inhibition curve with a large enough effect; inconclusive means small, poorly fitted or top-dose-only effect, or effect the other way; inactive means flat fitted curve, though single readings scatter. Potencies beside an inconclusive call are fits to weak or partial responses and may not hold up.
# Assay: qHTS screen for small molecules that inhibit ELG1-dependent DNA repair in human embryonic kidney (HEK293T) cells expressing luciferase-tagged ELG1; further: nearly all actives have a fitted effect of over 55% in size
# Conditions: HEK293T ELG1-luciferase reporter, luminescence, 16 h, DNA damage induced by 5-fluorouridine; activity change, negative = inhibition: at 46.1 µM (top of the series)
# Outline: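 Luminescence from the luciferase reporter, measured 30 min after ONE-Glo reagent at room temperature, was the read-out. Beforehand, 2,000 cells per well were exposed for 16 hr at 37 °C to 5-fluorouridine together with compound or vehicle.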
# On the % scale 0 is the no-effect control and ±100 the full control effect; potency means the concentration at half of the fitted maximal effect.
SMILES,Potency,"activity change, negative = inhibition"
N/C(=N\OC(=O)CCn1cccc(C(F)(F)F)c1=O)c1ccc(Cl)cc1,"inconclusive: 20.6 µM [inhibitor, single point]",–
COc1cc(CN(C2CCCCC2)S(=O)(=O)c2ccc(S(=O)(=O)N(C)C3CCCCC3)cc2)cc(OC)c1OC,–,inactive: -16.2%
CC(C)=NOc1cc(NC(=O)CCl)cc([N+](=O)[O-])c1,"inconclusive: 18.4 µM [inhibitor, single point]",–
COc1cc(C(C)=O)ccc1Oc1ncnc2c1cnn2-c1ccc(F)cc1,"inconclusive: 2.59 µM [activator, full curve]",–
CSc1cccc(NC(C)=O)c1,–,inactive: -13.8%
CCn1c(SCC(=O)Nc2cc(OC)ccc2OC)nnc1C1CCCCC1,"inconclusive: 13 µM [inhibitor, partial curve, poor fit]",–
COc1ccc(NC(=O)n2nc(OC(=O)c3cccs3)cc2N)cc1,"inconclusive: 23.1 µM [activator, single point]",–
CCN(CC)C(=O)[C@H]1CC(CC(=O)NCCC2=CCCCC2)C(=O)N2CCc3c([nH]c4ccccc34)[C@]12C (some centres undefined),–,inactive: -28.4%
O=S(=O)(CCSc1nc2ccccc2o1)c1nc2ccccc2s1,"inconclusive: 29.1 µM [inhibitor, single point]",–
COc1ccc(-c2cc3cc4c(cc3cn2)OCO4)cc1,"inconclusive: 0.517 µM [activator, full curve]",–
Cc1cccc(NS(=O)(=O)c2csc(C(N)=O)c2)c1,"inconclusive: 16.4 µM [inhibitor, partial curve, poor fit]",–
COc1ccc(-c2cc(C(=O)N/N=C/c3cccnc3)c3cc(C)cc(C)c3n2)cc1,"inconclusive: 29.1 µM [inhibitor, partial curve, poor fit]",–
CC(=O)c1ccc(NC(=O)CSc2ccc(-c3ccc4c(c3)OCO4)nn2)cc1,"inconclusive: 11.6 µM [activator, partial curve]",–
CCCCN(C)CCC(=O)Nc1ccc2c(c1)CCC2,active: 14.6 µM,–
Oc1ccccc1-c1ccn[nH]1,"inconclusive: 29.1 µM [activator, single point]",–
COC(=O)c1c(NC(=O)C(=O)N2CCCCC2)sc2c1CC(C)(C)OC2,"inconclusive: 29.1 µM [inhibitor, single point]",–
COc1ccc(NC(=O)C23CC4CC(C2)CC(n2cnc(Br)n2)(C4)C3)cc1Cl,"inconclusive: 25.9 µM [inhibitor, partial curve]",–
C[C@]12C=CC(=O)C=C1CCC1C2CC[C@@]2(C)C1CCC21OCCO1 (some centres undefined),"inconclusive: 18.3 µM [activator, single point]",–
COc1ccc2nc(NC(=O)c3ccc4ncsc4c3)sc2c1,"inconclusive: 2.59 µM [activator, full curve]",–
Brc1ccc(-c2csc3ncnc(-n4nnc5ccccc54)c23)cc1,"inconclusive: 29.1 µM [inhibitor, partial curve, poor fit]",–
O=C(Nc1ccc(Cl)cn1)c1cccc2ccccc12,"inconclusive: 31.6 µM [activator, single point]",–
COc1ccc(-c2nc(N3CCC(C)CC3)[nH]c(=O)c2C#N)cc1,–,inactive: -0.336%

# Part of the list above in a different format.
SMILES | Potency | activity change, negative = inhibition
COc1cc(CN(C2CCCCC2)S(=O)(=O)c2ccc(S(=O)(=O)N(C)C3CCCCC3)cc2)cc(OC)c1OC | – | inactive: -16.2%
CC(C)=NOc1cc(NC(=O)CCl)cc([N+](=O)[O-])c1 | inconclusive: 18.4 µM [inhibitor, single point] | –
COc1cc(C(C)=O)ccc1Oc1ncnc2c1cnn2-c1ccc(F)cc1 | inconclusive: 2.59 µM [activator, full curve] | –

# Additional entries.

SMILES,Potency,"activity change, negative = inhibition"
COC(CN1CCc2c(C)nc3c(C#N)cnn3c21)OC,–,inactive: 3.24%
O=C(CNS(=O)(=O)c1ccc(Cl)c(C(F)(F)F)c1)NC1CCCCCC1,–,inactive: 17.6%
O=C(Nc1cc2c(cc1Br)OCCO2)c1cccs1,"inconclusive: 16.4 µM [activator, partial curve]",–
CCCc1nnc(NC(=O)OCC)s1,–,inactive: 6.44%
COc1ccccc1N(CC(=O)N/N=C(\C)c1ccc(F)cc1)S(=O)(=O)c1ccccc1,–,inactive: 20.3%
CSc1ccc(CN2CCN(C(=O)c3ccc([N+](=O)[O-])cc3)CC2)cc1,"inconclusive: 6.51 µM [inhibitor, single point]",–
O=C(N/N=C/c1ccc(Br)s1)Nc1ccccc1,"inconclusive: 29.1 µM [activator, single point]",–
CSCC[C@H](NC(=O)NC1CCCC1)C(=O)O,"inconclusive: 6.51 µM [activator, single point]",–
Cc1ccc(CSc2nnc(-c3ccncc3)n2C)cc1,–,inactive: -10.5%
NC(=O)c1cccc(S(=O)(=O)N2CC(c3ccccc3)CC2=O)c1 (centres undefined),"inconclusive: 25.9 µM [inhibitor, partial curve, poor fit]",–
COc1ccc(/C=N/n2c(SC)nnc2-c2ccccc2)c(OC)c1OC,active: 8.2 µM,–
COc1ccc(C(=O)C2CCN(C(=S)NCC3CCCO3)CC2)cc1 (centres undefined),"inconclusive: 13 µM [inhibitor, partial curve]",–
CC(C)n1ncc2c(C(=O)Nc3ccc(S(C)(=O)=O)cc3)cc(C3CC3)nc21,"inconclusive: 29.1 µM [inhibitor, single point]",–
COc1ccc(NS(=O)(=O)c2cc(NC(=O)c3cccs3)ccc2N2CCCC2)cc1,"inconclusive: 32.6 µM [inhibitor, single point]",–
O=C(Nc1ccccc1)c1nc[nH]c1C(=O)NCCCNC(=O)c1[nH]cnc1C(=O)Nc1ccccc1,active: 2.91 µM,–
CN(C)c1ccnc(NCc2ccccc2)c1C#N,"inconclusive: 3.16 µM [inhibitor, single point]",–
S=c1[nH]nc(-c2ccco2)n1/N=C/C(Cl)=C/c1ccccc1,"inconclusive: 5.17 µM [activator, partial curve]",–
COc1ccc(/C=C2/SC(=O)N(NS(=O)(=O)c3ccccc3)C2=S)cc1OC,–,inactive: -4.39%
CN(C)S(=O)(=O)c1cccc(C(=O)NCC(C)(C)CNC(=O)c2cccc(S(=O)(=O)N(C)C)c2)c1,"inconclusive: 29.1 µM [inhibitor, single point]",–
COc1ccc(C(=O)OCC(=O)NC(=O)NC2CCCC2)cc1OC,"inconclusive: 32.6 µM [inhibitor, partial curve, poor fit]",–
O=C(NNC(=O)c1cc(-c2ccco2)nc2ccccc12)c1ccccc1,"inconclusive: 10.3 µM [inhibitor, partial curve]",–
C=CCNCCCOc1ccc(C)cc1Br,"inconclusive: 23.1 µM [activator, single point]",–
